According to publication PMC10163288:
Some of the results follow.

B1: il2ra_site1_2b5i_sap_21_mot_HHH_b1_01165_af2_000000109_0001_42_55_H_._9e027cdb5f26361229cf46a28aff2188_0001_1_af2_0001_0000600023_0000001_0_0001_af2pred_0001_af … (protein)
chain: SSSSDEKEEALELFRKAQELLENGNPEEAEEVLEKAAEIAEEAGNRSLLRAIEWALEQFESSSSS
B2: il2ra_site2_3nfp_sap_19_mot_HHH_b2_02902_af2_000000043_0001_44_57_H_._HHH_b1_07323_af2_0001_0000100005_0000001_0_0001_af2pred_0001_af2pred (protein)
chain: SSSSDAEEEIKELLEKVEELLKEGDPEEAERLLKRVAKLVRELGDFELFHLVLELRRKVESSSSS
B3: il2ra_site1_1z92_sap_30_mot_HHH_b1_07156_000000060_0001_21_38_H_._43642e40158d6d50ca32f4d9c2045359_0001_0001_0000100001_0000001_0_0001 (protein)
chain: SSSSTEEALEYIEEMVRLKFELAERTNDERARELIEFLLRQAKLAGDPELAEEIEELLERLSSSS
B4: il2ra_site2_3nfp_normal_mot_HHH_b2_07129_000000128_0001_19_36_H_._HHH_b1_08270_0001_0001000010_0000001_0_af2pred_0001_1_af2pred_swapped (protein)
chain: SSSSDIEERILELLRRAKELYENGNPEEARKLIEEAEELAEELNDEEIRFLVKVALRELRLSSSS
B5: il2ra_site2_2erj_normal_mot_HHH_b1_01239_000000175_0001_43_57_H_._HHH_b2_04847_0001_0000100005_0000001_0_af2pred_0001_1_af2pred_swapped (protein)
chain: SSSSSSEEVEERIRELLERAEKIPDLREALELLQEASELAAELNDPELIELVTEVARRLSSSSSS
B6: il2ra_site1_3nfp_sap_16_mot_HHH_b1_01335_af2_000000258_0001_39_53_H_._a46e32ff5abe01017c5ab207d099328f_0001_1_af2_0001_0000200010_0000001_0_0001_af2pred_0001_af … (protein)
chain: SSSSSSDLEVAKIVIELAEEFNLDNELSRELIHLAAKLRLRGVSEEEIEEILREVAKELSSSSSS
B7: il2ra_site2_2erj_sap_25_mot_ems_p1-14H-GABBL-16H-GABBL-15H_0014_0001_0001_0001_000000124_0001_40_55_H_._HHH_b1_02157_af2_0002_0000100014_0000001_0_0001_af2pred_ … (protein)
chain: SSSDREEVAERVVEELVEELGLDERAKNLLEALARHLIELGASPEEIEKILEESARSAKEALSSS
B8: il2ra_site2_2erj_sap_19_mot_HHH_b2_02303_000000050_0001_43_56_H_._HHH_b2_02338_0001_0000200012_0000001_0_0001 (protein)
chain: SSSSNEELHELYELANELLRLVHEGDEEQFERVFEELERLIEKLDSRTARRILEWLRRHLHSSSS
B9: il2ra_site2_3nfp_normal_mot_HHH_b1_03818_000000217_0001_1_20_H_._HHH_b1_03372_af2_0001_0000400021_0000001_0 (protein)
chain: SSSSDEEKLEELEEEIKKLIEEGDKYEVFELVAELSELAARLQDEEAAEFVIEVYKWLKGSSSSS
B10: il2ra_site2_3nfp_sap_24_mot_HHH_b1_03818_000000217_0001_1_20_H_._HHH_b1_04518_af2_0001_0000400014_0000001_0_0001 (protein)
chain: SEKDLIEMSLEMIKAHALLHGNEEVQEIVEELERLLEEAKRKNDEELREEVAERAAELIERVLES
B11: il2ra_site2_3nfp_sap_12_mot_HHH_b1_03213_af2_000000225_0001_42_59_H_._HHH_b2_01792_0001_0000600042_0000001_0_0001_af2pred_0001_af2pred (protein)
chain: SSSSSDEEERERVEELLEEAKHIEDEFELFAVLADALEIALRLEDPELEELVRRVARELRSSSSS
B12: il2ra_site2_2erj_normal_mot_HHH_b2_04740_af2_000000163_0001_42_55_H_._ems_3hM_441_0001_0000400022_0000001_0 (protein)
chain: DEELEELIEELLEILEELLRENPEAVQMVRRAAKEAKKAVKNGDEELAEELVRVLEKFVRFLEES
B13: il2ra_site2_3nfp_normal_mot_HHH_b1_00660_af2_000000090_0001_40_57_H_._HHH_b2_00518_af2_0001_0000600042_0000001_0_af2pred_0001_af2pred (protein)
chain: SSSSSEDEERIEKLLEQAEEALEEGDEEKAKRLILEASQIAYEANNYELFALVLNVKEKLESSSS
B14: il2ra_site1_2b5i_normal_mot_HHH_b1_06258_af2_000000112_0001_42_56_H_._HHH_b2_03461_0001_0000100008_0000001_0 (protein)
chain: SSSSDQEERRVDELFREASRAYRRGDPEKARKLLEEALELAEELGDERAFEQIRFMLERLRSSSS
B15: il2ra_site1_1z92_normal_mot_01209686ea234b34325f918445e6eade_0001_af2_000000154_0001_18_33_H_._HHH_b2_04498_0001_0000200011_0000001_0_af2pred_0001_af2pred_1_swa … (protein)
chain: SSSSSDEEERIVEELIEELGGSEHDREAAERDAEAARRQGFSEENIRKALERAIRIFLERSSSSS
B16: il2ra_site1_2b5i_normal_mot_HHH_b2_04910_000000118_0001_1_19_H_._HHH_b1_05884_0001_0000300017_0000001_0_af2pred_dldesign_0_af2pred (protein)
chain: SSSSSAEARRLRELLLEADRLFQAGKEEEARATLERALELAKKAKANNTLKMIQSALENLGSSSS
B17: il2ra_site1_2b5i_sap_12_mot_HHH_b2_04545_af2_000000008_0001_21_36_H_._HHH_b1_01434_af2_0001_0000100005_0000001_0_0001_af2pred_dldesign_0_af2pred (protein)
chain: SSSSSSPKEEVEKLIEEAKKEPDREKTKELLDKAYDIAYEAEDKELIKKVIKVRYELKLSSSSSS
B18: il2ra_site1_3nfp_normal_mot_7cbdf275c6f204f9d60ac8802deb44b6_0001_1_000000034_0001_19_33_H_._HHH_b1_00879_0001_0000200007_0000001_0 (protein)
chain: SSSSTADEYLEELVQEAFEEGDRLQLRALIRLLRHALERLGNPIAKELLEKAEELLKELRSSSSS
B19: il2ra_site1_3nfp_normal_mot_HHH_b1_04372_000000168_0001_18_32_H_._HHH_b2_02112_0001_0000300024_0000001_0_af2pred_0001_af2pred (protein)
chain: SSSSSSEETEEARKEIEELLKRGDEEKLEEALEEAIEIARRNDSRSLVRFLEALLRLLRRSSSSS
B20: il2ra_site1_2b5i_sap_12_mot_HHH_b2_01648_000000060_0001_42_56_H_._HHH_b1_08267_af2_0001_0000300026_0000001_0_0001 (protein)
chain: SSSSDLEELDELFHEASEAWRRGNPEEARKLLEEALRLARELGDESAERDIERFLEMLRGSSSSS
B21: il2ra_site2_2erj_normal_mot_HHH_b2_05804_000000098_0001_44_58_H_._HHH_b2_06227_af2_0001_0001300021_0000001_0 (protein)
chain: SSSSSSKEVWEQVAELLAKAAHVDEEEAEELLKEAERLAEEANNEFLKRYIEFVRRALESSSSSS
B22: il2ra_site2_2erj_normal_mot_HHH_b2_08130_000000073_0001_1_17_H_._HHH_b1_02674_0001_0000200002_0000001_0_1_af2pred_0001_1_af2pred_swapped (protein)
chain: SSSSSEEEARELVEEARRALEEGNPQEAEEIAIRLLLLAQEVGDPEVRRLLEELARRLARLSSSS
B23: il2ra_site1_3nfp_sap_13_mot_HHH_b2_06429_af2_000000115_0001_1_18_H_._HHH_b1_02888_0001_0000700049_0000001_0_0001 (protein)
chain: SSSSSELEELFRRAFELAQNGNYEEAEEVLEEARKVAEERNSEATLRFLEIALKIVKRAKSSSSS
B24: il2ra_site2_2erj_normal_mot_b21041926606bcd66a54c4cea8303fc2_0001_1_af2_000000031_0001_15_29_H_._HHH_b2_03606_0001_0000700028_0000001_0 (protein)
chain: SSSSSSDEDVKEVAELLFKAARIEDEEERREVLEQAREVAEKTNNEALKRYIEFQERDLSSSSSS
B25: il2ra_site1_1z92_sap_16_mot_HHH_b1_02849_000000017_0001_22_39_H_._HHH_b1_06964_0001_0000100005_0000001_1_0001_af2pred_0001_af2pred_1 (protein)
chain: NTEELLKQARERGTLEEFVAEIIREMRENGFPPKNIRIFVRQLLRKLGLSPEEVEEVSEKAEELG
B26: il2ra_site2_3nfp_normal_mot_HHH_b1_00660_af2_000000090_0001_40_57_H_._HHH_b2_07007_0001_0000300027_0000001_0_af2pred_0001_1_af2pred_swapped (protein)
chain: SSSSDEEEARELLEQAERLAEEGNPEEAEELLERANKIAYESNNHELFALSTEVLEKVEKLSSSS
B27: il2ra_site1_2b5i_normal_mot_HHH_b2_02846_af2_000000040_0001_1_19_H_._HHH_b2_04268_af2_0001_0000100002_0000001_0_af2pred_dldesign_0_af2pred (protein)
chain: SSSSSKEQELEVSKIIEELIEEKGLTEEQEAELRTLAVDLLYKGVSVEEIKKILKEKAEKLSSSS
B28: il2ra_site2_3nfp_normal_mot_HHH_b1_05627_af2_000000038_0001_43_56_H_._HHH_b1_05806_af2_0001_0000500032_0000001_1 (protein)
chain: SSSSDKAQEYLEAAILIVELALEEGDPESARKSAEAAALLAEALGDEELLKEIEELLEEISSSSS
B29: il2ra_site2_2erj_sap_24_mot_HHH_b1_06627_000000072_0001_40_54_H_._HHH_b1_08663_af2_0001_0000500015_0000001_0_0001 (protein)
chain: SSSSDESLEVAEEMVKEAFERGDRSLLELLLRYLELALEDTNDPEIEEVLRLAEELLEELRSSSS
B30: il2ra_site1_3nfp_sap_16_mot_HHH_b1_03160_af2_000000201_0001_1_18_H_._HHH_b2_04980_0001_0000100002_0000001_0_0001_af2pred_0001_af2pred_1_swapped (protein)
chain: DEIEEELERAAEEGNLSRVLVKLIRELSEKNEELSEKLFKVLVELAHKGVPPEEIAKIAAEVFEE
B31: il2ra_site2_3nfp_normal_mot_HHH_b1_04312_000000268_0001_22_39_H_._HHH_b2_01313_af2_0001_0000200012_0000001_0 (protein)
chain: SSSSSEEAEELLERAERALEEGDLFEASELALRASEIAARLNDEELARKILELYEELARRFSSSS
B32: il2ra_site2_2erj_normal_mot_HHH_eva_0077_000000062_0001_1_20_H_._7893fd715048dbce5e23317e54f1e302_0001_0001_0000700034_0000001_0_af2pred_0001_af2pred (protein)
chain: DEEEAKEIVAEALGIPPEEVEEDVEEAKREFGDPKEVEKFLASSLRTAGVPPEEAEKLAKLLLRG
B33: il2ra_site1_1z92_sap_15_mot_HHH_b2_07283_000000256_0001_22_39_H_._HHH_b2_02826_af2_0001_0000100003_0000001_1_0001_af2pred_0001_af2pred (protein)
chain: SSSSSLSVRAAQLAAEIALELGLDDRQARELLRLAVRLANDGFSEEEIEEILRELAKELLSSSSS
B34: il2ra_site2_2erj_normal_mot_HHH_b2_08028_000000126_0001_18_34_H_._HHH_b2_03584_af2_0001_0000300005_0000001_0 (protein)
chain: SSSSDLEELLEEAKQLLEEGDPEEAHRVLSEAFELAYRNNDFELFNELAKLAELIARYEGSSSSS
B35: il2ra_site2_3nfp_normal_mot_HHH_b2_08245_000000272_0001_41_55_H_._HHH_b1_05218_0001_0000300030_0000001_0 (protein)
chain: SSSSDEERVEELLREVEELLKRGNPEEAQKLLREATKIAFENRNHELFAKIAEYLFLLVQSSSSS
B36: il2ra_site1_1z92_normal_mot_HHH_b2_07744_000000167_0001_23_40_H_._HHH_b1_00578_0001_0000200029_0000001_0 (protein)
chain: SSSTDEEAAQLLLRLLEIAVKANDEEHVRKVFEFLREHVEDAGDPELRRILEEAEELLEEVSSSS
B37: il2ra_site1_2b5i_normal_mot_HHH_b1_06833_000000207_0001_1_19_H_._ems_p1-16H-GBL-16H-GABBL-15H_0203_0001_0001_0001_0001_0000100003_0000001_0_af2pred_dldesign_0_a … (protein)
chain: SSSSSSPIDKRLDELYDKAQAAGNKEAMKKVVTAKYYYEKGEINEEELQKLIDEAEELLKSSSSS

The binders below were run against il2ra, P01589 (assay: yeast display titration).

Apparent Kd, inactive:
B1 no binding seen
B2 > 650 nM
B3 no binding seen
B4 no binding seen
B5 no binding seen
B6 no binding seen
B7 no binding seen
B8 no binding seen
B9 no binding seen
B10 no binding seen
B11 no binding seen
B12 no binding seen
B13 no binding seen
B14 no binding seen
B15 no binding seen
B16 no binding seen
B17 no binding seen
B18 no binding seen
B19 no binding seen
B20 no binding seen
B21 no binding seen
B22 no binding seen
B23 no binding seen
B24 no binding seen
B25 no binding seen
B26 no binding seen
B27 no binding seen
B28 no binding seen
B29 no binding seen
B30 no binding seen
B31 no binding seen
B32 no binding seen
B33 no binding seen
B34 no binding seen
B35 no binding seen
B36 no binding seen
B37 no binding seen

An excerpt from further up, for reference:
Apparent Kd, inactive:
B1 no binding seen
B2 > 650 nM
B3 no binding seen
